# Measurements published in the supplement of paper PMC12542422.
# Counter-ions that a name gives are not always drawn. ± gives the standard deviation of the averaged measurements. This is one part of the list. Values are raw readings; no control value is given beside them.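 HeLa cells imaged for ribosome-assembly readouts (ENP1 staining with or without export block, or inducible tagged ribosomal protein reporters); machine learning classified each cell's signal location against solvent (DMSO) controls. Hits exceeded the DMSO false-positive mean by five standard deviations, then were visually confirmed; three biological replicates.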
# Key:
# [1] = tested on: HeLa K (ENP1 immunofluorescence, +LMB); test: fraction of cells with nucleolar or nucleolar/nucleoplasmic ENP1 signal (MainHitrate); higher = more cells with nucleolar/nuclear readout signal (for ENP1 -LMB: less RNAPI inhibition; for +LMB ENP1 and RP reporters: stronger nuclear/nucleolar retention, i.e. ribosome biogenesis defect); settings: concentration: 1 µM; treatment time: 6 h; ENP1 +LMB; leptomycin B: 20 nM, last 1.5 h
# [2] = tested on: HeLa K (ENP1 immunofluorescence, no LMB); test: as above; settings: concentration: 1 µM; treatment time: 6 h; ENP1 -LMB; leptomycin B: none
# HeLa RPS2-YFP reporter = test: fraction of reporter-positive cells with nuclear (nucleolar or nucleolar/nucleoplasmic) RPS2-YFP (MainHitrate); higher = more cells with nucleolar/nuclear readout signal (for ENP1 -LMB: less RNAPI inhibition; for +LMB ENP1 and RP reporters: stronger nuclear/nucleolar retention, i.e. ribosome biogenesis defect); settings: concentration: 1 µM; treatment time: 6 h
# HeLa RPL29-GFP reporter = test: fraction of reporter-positive cells with nuclear (nucleolar or nucleolar/nucleoplasmic) RPL29-GFP (MainHitrate); higher = more cells with nucleolar/nuclear readout signal (for ENP1 -LMB: less RNAPI inhibition; for +LMB ENP1 and RP reporters: stronger nuclear/nucleolar retention, i.e. ribosome biogenesis defect); settings: concentration: 1 µM; treatment time: 6 h
Compound,fraction [1],fraction [2],fraction of reporter-positive cells with nuclear (HeLa RPS2-YFP reporter),fraction of reporter-positive cells with nuclear (HeLa RPL29-GFP reporter)
CN(C)CCC(c1ccc(Br)cc1)c1ccccn1 (configuration not stated) [Brompheniramine],0.0622 ± 0.06,0.99 ± 0.017,0.108 ± 0.085,0.226 ± 0.044
C[C@@H](O)[C@H]1C(=O)N2C(C(=O)O)=C(S[C@@H]3CN[C@H](C(=O)N(C)C)C3)[C@H](C)[C@H]12 [Meropenem],0.0928 ± 0.085,0.9984 ± 0.0027,0.112 ± 0.066,0.202 ± 0.049
CCC(C)n1ncn(-c2ccc(N3CCN(c4ccc(OCC5COC(Cn6cncn6)(c6ccc(Cl)cc6Cl)O5)cc4)CC3)cc2)c1=O (configuration not stated) [Itraconazole (Sporanox)],0.104 ± 0.15,0.9977 ± 0.0041,0.0631 ± 0.029,0.217 ± 0.034
CN(C)CCOC(c1ccccc1)c1ccccc1 [Diphenhydramine HCl (Benadryl)],0.0759 ± 0.1,0.994 ± 0.011,0.123 ± 0.062,0.202 ± 0.054
CC(C)C(=O)Oc1ccc(CO)cc1[C@H](CCN(C(C)C)C(C)C)c1ccccc1 [Fesoterodine fumarate (Toviaz)],0.16 ± 0.23,0.99 ± 0.018,0.115 ± 0.087,0.229 ± 0.054
O=C1[C@@H]2[C@H]3CC[C@H](C3)[C@@H]2C(=O)N1C[C@@H]1CCCC[C@H]1CN1CCN(c2nsc3ccccc23)CC1 [Lurasidone HCl],0.103 ± 0.14,0.984 ± 0.027,0.143 ± 0.1,0.207 ± 0.059
Cn1c(=O)c2[nH]cnc2n(C)c1=O [Aminophylline (Truphylline)],0.0597 ± 0.053,0.998 ± 0.0034,0.105 ± 0.052,0.235 ± 0.092
CC(C(=O)O)c1ccc2c(c1)Cc1cccnc1O2 (configuration not stated) [Pranoprofen],0.0376 ± 0.038,0.9962 ± 0.0066,0.0595 ± 0.022,0.249 ± 0.08
C[C@@H]1O[C@@H]1P(=O)(O)O [Fosfomycin Tromethamine],0.133 ± 0.14,0.9985 ± 0.0025,0.176 ± 0.18,0.273 ± 0.17
C=CC[N+]1([C@H]2C[C@H]3[C@@H]4CC[C@H]5C[C@H](O)[C@@H](N6CCOCC6)C[C@]5(C)[C@H]4CC[C@]3(C)[C@H]2OC(C)=O)CCCC1 [Rocuronium bromide],0.133 ± 0.15,0.997 ± 0.0052,0.119 ± 0.065,0.213 ± 0.075
CN(C)[C@@H]1C(O)=C(C(=O)NCN2CCCC2)C(=O)[C@@]2(O)C(O)=C3C(=O)c4c(O)cccc4[C@@](C)(O)[C@H]3C[C@@H]12 [Rolitetracycline],0.117 ± 0.14,0.95 ± 0.087,0.192 ± 0.21,0.299 ± 0.28
Cn1c([N+](=O)[O-])cnc1COC(N)=O [Ronidazole],0.0904 ± 0.12,0.972 ± 0.048,0.124 ± 0.11,0.231 ± 0.064
O=c1oc2c(O)c(O)cc3c(=O)oc4c(O)c(O)cc1c4c23 [Ellagic acid],0.107 ± 0.064,0.9978 ± 0.0038,0.115 ± 0.075,0.207 ± 0.071
Nc1ccc(O)c(C(=O)O)c1 [Mesalamine (Lialda)],0.0699 ± 0.061,0.998 ± 0.0036,0.113 ± 0.094,0.223 ± 0.044
COc1cc(C)c(/C=C/C(C)=C/C=C/C(C)=C/C(=O)O)c(C)c1C [Acitretin],0.0924 ± 0.11,0.9979 ± 0.0036,0.109 ± 0.075,0.198 ± 0.087
CC(C)NCC(O)COc1cccc2ccccc12 (configuration not stated) [Propranolol HCl],0.0737 ± 0.1,0.986 ± 0.024,0.122 ± 0.085,0.206 ± 0.08
OC[C@H]1O[C@H](O[C@]2(CCl)O[C@H](CCl)[C@@H](O)[C@@H]2O)[C@H](O)[C@@H](O)[C@H]1Cl [Sucralose],0.0983 ± 0.14,0.986 ± 0.025,0.12 ± 0.1,0.221 ± 0.07
C[C@H]1C[C@@H]2[C@H]([C@@H](O)C[C@@]3(C)[C@H]2CC[C@]3(O)C(=O)CO)[C@@]2(C)C=CC(=O)C=C12 [Methylprednisolone],0.0815 ± 0.078,0.9979 ± 0.0036,0.161 ± 0.083,0.216 ± 0.012

# An excerpt of these results, with bars between the fields:
Compound | fraction [1] | fraction [2] | fraction of reporter-positive cells with nuclear (HeLa RPS2-YFP reporter) | fraction of reporter-positive cells with nuclear (HeLa RPL29-GFP reporter)
Nc1ccc(O)c(C(=O)O)c1 [Mesalamine (Lialda)] | 0.0699 ± 0.061 | 0.998 ± 0.0036 | 0.113 ± 0.094 | 0.223 ± 0.044
COc1cc(C)c(/C=C/C(C)=C/C=C/C(C)=C/C(=O)O)c(C)c1C [Acitretin] | 0.0924 ± 0.11 | 0.9979 ± 0.0036 | 0.109 ± 0.075 | 0.198 ± 0.087
